These results are taken from article PMC12507517.

Chains of the proteins cited; added tags and fusions are not shown. Residues count along the entry.
UniProt P70210: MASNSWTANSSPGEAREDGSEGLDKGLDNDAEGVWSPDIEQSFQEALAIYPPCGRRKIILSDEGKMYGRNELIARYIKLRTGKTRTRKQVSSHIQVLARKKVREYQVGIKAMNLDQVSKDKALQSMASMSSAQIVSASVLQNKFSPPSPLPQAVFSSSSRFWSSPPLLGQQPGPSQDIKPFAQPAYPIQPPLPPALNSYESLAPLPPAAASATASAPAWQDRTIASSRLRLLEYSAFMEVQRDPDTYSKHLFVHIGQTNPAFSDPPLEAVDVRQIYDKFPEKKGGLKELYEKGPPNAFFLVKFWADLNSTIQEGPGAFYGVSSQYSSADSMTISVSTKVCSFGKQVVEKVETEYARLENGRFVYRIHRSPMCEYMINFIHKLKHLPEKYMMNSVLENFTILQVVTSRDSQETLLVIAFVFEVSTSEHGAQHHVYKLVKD
UniProt P97471: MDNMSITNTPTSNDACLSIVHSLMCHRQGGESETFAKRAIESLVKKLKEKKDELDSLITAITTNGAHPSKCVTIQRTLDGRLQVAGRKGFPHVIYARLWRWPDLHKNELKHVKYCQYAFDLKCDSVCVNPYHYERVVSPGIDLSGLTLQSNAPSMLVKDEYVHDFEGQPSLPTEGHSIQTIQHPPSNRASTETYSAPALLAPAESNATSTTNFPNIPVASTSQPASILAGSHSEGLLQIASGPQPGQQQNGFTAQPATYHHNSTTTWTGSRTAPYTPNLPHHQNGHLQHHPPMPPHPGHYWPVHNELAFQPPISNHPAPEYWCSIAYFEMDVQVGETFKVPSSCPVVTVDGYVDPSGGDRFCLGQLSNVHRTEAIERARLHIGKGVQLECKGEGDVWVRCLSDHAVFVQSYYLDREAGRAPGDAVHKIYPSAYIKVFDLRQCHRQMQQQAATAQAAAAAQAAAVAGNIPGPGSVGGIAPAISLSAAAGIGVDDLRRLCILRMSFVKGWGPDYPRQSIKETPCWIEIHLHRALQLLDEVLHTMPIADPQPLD
UniProt Q9WV30: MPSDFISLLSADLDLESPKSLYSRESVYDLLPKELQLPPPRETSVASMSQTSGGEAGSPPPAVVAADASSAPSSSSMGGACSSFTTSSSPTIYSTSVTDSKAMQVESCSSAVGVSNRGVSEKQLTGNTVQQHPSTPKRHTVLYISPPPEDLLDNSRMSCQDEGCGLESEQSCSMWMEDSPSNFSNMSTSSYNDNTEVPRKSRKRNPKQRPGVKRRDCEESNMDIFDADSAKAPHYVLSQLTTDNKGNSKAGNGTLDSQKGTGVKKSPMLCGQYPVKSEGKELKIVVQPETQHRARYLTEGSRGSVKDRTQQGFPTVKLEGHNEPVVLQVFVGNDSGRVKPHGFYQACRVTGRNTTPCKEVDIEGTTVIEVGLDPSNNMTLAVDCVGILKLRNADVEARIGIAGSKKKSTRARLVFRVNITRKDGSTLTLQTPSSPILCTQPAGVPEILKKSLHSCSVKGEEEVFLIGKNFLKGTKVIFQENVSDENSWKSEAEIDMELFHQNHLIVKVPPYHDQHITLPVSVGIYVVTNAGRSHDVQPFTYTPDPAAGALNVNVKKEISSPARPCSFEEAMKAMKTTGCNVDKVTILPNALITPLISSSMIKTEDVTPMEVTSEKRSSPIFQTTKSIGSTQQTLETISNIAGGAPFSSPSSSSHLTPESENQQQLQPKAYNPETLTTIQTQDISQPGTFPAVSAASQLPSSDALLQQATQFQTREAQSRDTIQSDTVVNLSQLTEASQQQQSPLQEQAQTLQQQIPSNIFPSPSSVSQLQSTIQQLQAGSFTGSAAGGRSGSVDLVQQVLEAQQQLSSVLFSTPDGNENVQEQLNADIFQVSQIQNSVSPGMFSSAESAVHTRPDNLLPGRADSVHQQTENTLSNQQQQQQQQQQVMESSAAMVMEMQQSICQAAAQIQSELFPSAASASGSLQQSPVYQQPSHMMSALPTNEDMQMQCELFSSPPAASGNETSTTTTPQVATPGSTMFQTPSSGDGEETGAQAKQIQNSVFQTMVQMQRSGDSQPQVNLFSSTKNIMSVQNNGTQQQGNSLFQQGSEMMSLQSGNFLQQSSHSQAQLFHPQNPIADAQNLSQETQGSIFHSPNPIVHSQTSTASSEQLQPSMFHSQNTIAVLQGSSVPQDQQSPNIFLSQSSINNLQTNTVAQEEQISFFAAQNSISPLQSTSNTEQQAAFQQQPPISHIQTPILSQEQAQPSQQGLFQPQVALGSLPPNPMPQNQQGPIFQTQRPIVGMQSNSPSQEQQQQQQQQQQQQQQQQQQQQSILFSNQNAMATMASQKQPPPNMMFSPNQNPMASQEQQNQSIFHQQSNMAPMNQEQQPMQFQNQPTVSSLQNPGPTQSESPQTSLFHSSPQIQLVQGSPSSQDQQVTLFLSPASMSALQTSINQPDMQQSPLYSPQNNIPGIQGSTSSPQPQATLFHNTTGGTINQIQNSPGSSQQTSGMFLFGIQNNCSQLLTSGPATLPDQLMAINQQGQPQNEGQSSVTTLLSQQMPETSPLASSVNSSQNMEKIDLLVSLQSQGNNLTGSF
UniProt Q04206: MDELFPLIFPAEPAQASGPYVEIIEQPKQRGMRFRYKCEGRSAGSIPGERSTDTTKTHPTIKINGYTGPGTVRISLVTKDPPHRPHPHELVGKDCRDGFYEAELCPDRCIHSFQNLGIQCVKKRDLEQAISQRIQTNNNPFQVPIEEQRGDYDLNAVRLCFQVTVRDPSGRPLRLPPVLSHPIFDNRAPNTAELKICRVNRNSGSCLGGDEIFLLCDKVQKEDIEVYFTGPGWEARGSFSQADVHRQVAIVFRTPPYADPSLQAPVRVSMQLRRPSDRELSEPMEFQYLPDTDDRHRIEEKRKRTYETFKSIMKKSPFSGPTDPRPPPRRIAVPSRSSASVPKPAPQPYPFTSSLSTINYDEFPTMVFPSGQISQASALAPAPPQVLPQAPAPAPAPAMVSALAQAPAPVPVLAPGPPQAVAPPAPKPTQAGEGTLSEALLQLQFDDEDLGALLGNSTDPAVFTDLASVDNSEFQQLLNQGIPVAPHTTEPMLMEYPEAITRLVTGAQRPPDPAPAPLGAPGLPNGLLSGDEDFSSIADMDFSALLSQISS
UniProt Q04207, residues 19-304: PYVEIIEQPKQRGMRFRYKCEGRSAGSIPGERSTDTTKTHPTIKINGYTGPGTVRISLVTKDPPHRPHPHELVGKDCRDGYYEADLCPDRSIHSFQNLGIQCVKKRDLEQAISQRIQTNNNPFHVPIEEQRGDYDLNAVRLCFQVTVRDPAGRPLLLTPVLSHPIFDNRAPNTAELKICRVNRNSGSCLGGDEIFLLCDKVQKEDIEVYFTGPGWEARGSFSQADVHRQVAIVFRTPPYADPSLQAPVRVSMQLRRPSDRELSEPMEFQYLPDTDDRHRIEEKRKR
UniProt P25799, residues 1-435: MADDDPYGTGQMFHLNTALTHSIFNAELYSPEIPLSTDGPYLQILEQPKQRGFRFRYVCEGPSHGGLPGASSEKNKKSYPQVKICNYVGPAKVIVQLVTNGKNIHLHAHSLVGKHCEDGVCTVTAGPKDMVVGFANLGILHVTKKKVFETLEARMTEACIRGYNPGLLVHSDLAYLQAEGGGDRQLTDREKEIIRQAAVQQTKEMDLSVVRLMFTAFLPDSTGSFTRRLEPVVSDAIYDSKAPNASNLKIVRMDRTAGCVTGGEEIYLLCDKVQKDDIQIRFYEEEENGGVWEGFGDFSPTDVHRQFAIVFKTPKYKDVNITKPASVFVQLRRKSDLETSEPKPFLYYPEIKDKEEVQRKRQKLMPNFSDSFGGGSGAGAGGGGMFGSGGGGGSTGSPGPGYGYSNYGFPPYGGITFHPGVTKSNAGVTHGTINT

The target of one test is T1, FLAG-tagged Cux1 (UniProt P53564).
T1 sequence: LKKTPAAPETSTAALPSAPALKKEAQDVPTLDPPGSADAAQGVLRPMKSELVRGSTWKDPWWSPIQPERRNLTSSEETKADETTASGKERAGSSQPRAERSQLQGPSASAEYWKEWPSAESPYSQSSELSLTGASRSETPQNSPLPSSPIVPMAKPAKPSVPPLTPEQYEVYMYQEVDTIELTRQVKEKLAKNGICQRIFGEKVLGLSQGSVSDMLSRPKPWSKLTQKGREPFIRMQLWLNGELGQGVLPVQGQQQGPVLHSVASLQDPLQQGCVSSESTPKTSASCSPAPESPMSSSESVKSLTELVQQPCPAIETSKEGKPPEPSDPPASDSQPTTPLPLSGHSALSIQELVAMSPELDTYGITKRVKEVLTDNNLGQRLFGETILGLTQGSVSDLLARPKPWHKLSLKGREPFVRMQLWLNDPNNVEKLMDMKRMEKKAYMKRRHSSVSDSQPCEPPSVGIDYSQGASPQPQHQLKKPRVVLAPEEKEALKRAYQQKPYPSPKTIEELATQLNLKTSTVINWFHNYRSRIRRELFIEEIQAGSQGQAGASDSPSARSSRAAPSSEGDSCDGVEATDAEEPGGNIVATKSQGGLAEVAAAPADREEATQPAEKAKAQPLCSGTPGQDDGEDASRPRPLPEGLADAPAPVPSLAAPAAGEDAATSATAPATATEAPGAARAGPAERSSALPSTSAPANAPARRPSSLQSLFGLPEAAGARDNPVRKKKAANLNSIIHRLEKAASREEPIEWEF
The test is described as follows: co-IP; HEK293T co-transfected with HA-RelA and a FLAG-tagged cofactor for 24 h, mouse TNF-α 30 min; lysis in 25 mM Tris-HCl pH 7.5, 150 mM NaCl, 5% glycerol, 1% NP-40; anti-FLAG M2 agarose 2 h at 4°C; western blot. (Immunoblotting shows a protein as a band on a membrane.)

In a further test the target is FLAG-tagged Tead3 (UniProt P70210). Described as above.
The next test has as its target FLAG-tagged Smad4 (UniProt P97471). The description is as above.
The target in test [1] is T2, FLAG-tagged Nfatc1 (UniProt O88942).
T2 sequence: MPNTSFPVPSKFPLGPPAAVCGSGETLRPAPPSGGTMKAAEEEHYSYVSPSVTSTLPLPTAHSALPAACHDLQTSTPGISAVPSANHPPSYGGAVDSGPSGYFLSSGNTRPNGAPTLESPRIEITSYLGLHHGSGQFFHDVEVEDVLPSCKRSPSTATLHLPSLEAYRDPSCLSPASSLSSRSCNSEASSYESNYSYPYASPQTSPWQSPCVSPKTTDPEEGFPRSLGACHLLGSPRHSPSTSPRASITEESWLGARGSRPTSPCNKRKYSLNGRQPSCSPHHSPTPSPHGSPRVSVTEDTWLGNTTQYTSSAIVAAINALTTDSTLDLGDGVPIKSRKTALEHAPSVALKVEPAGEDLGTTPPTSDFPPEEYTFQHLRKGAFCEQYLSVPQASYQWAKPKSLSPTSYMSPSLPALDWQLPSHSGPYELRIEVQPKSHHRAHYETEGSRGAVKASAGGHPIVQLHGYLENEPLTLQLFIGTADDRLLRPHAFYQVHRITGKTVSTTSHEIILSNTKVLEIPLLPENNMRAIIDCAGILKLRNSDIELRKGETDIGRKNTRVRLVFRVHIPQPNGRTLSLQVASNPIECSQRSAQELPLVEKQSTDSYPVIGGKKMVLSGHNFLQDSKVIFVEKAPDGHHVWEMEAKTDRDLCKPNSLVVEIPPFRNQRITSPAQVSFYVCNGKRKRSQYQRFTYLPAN
Described as above.

A further test concerns the target FLAG-tagged Nfat5 (UniProt Q9WV30). The test is described as above.
Test [2] deals with Full-length His-RelA (1-551) (UniProt Q04206). Put plainly: SEC; His-p50 and His-RelA mixed 1:1 at 0.1 mg/mL, 1 h at room temperature, then HiLoad 16/60 Superdex 200 in 25 mM Tris-HCl pH 7.5, 200 mM NaCl, 5% glycerol, 1 mM DTT; both purified.
Test [3] has as its target T2, FLAG-tagged Nfatc1. Put plainly: co-IP; FLAG-Nfatc1 pulled down, endogenous RelA detected (Supplementary Fig. S3C).
For a further test, the target named is untagged RelA(19–304) (UniProt Q04207). The test is described as follows: crystal structure; RelA(19-304) at ~150 micromolar with κB-DNA duplex 1:1.2; hanging drop at 18°C, MES pH 5.5, 14% PEG3350; molecular replacement; both purified.

No constants are given. Whether binding was seen depends on the method and setting. For some assays here: In cells and extracts the contact can be indirect. Some entries that bind do so weakly or less than the wild type. For some assays here: Sequences can lack the tags named with a protein.

In the case of “HA-tagged RelA (from UniProt Q04206 1-551)”, the binding entry with FLAG-tagged Cux1, with FLAG-tagged Tead3, with FLAG-tagged Smad4, in the test with FLAG-tagged Nfatc1 [1] and in the test with FLAG-tagged Nfat5 was “binds weakly” throughout.

Turning to “His-tagged p50 (1-435) (from UniProt P25799 1-435) (domain or fragment)”, the binding result in test [2] was “binds”.

Turning to “endogenous RelA (from UniProt Q04206 1-551)”, the binding result with FLAG-tagged Nfatc1 [3] is “binds”.

In the case of “untagged RelA(19–304) (from UniProt Q04207 19-304) (domain or fragment)”, the binding entry with untagged RelA(19–304) is given as “binds”.
